The nature of data set [1]: in vivo. The settings on record: Sprague-Dawley, rat, po.
In data set [2] the target is T1, Mineralocorticoid receptor (Homo sapiens, UniProt P08235).
T1 sequence (P08235 whole entry): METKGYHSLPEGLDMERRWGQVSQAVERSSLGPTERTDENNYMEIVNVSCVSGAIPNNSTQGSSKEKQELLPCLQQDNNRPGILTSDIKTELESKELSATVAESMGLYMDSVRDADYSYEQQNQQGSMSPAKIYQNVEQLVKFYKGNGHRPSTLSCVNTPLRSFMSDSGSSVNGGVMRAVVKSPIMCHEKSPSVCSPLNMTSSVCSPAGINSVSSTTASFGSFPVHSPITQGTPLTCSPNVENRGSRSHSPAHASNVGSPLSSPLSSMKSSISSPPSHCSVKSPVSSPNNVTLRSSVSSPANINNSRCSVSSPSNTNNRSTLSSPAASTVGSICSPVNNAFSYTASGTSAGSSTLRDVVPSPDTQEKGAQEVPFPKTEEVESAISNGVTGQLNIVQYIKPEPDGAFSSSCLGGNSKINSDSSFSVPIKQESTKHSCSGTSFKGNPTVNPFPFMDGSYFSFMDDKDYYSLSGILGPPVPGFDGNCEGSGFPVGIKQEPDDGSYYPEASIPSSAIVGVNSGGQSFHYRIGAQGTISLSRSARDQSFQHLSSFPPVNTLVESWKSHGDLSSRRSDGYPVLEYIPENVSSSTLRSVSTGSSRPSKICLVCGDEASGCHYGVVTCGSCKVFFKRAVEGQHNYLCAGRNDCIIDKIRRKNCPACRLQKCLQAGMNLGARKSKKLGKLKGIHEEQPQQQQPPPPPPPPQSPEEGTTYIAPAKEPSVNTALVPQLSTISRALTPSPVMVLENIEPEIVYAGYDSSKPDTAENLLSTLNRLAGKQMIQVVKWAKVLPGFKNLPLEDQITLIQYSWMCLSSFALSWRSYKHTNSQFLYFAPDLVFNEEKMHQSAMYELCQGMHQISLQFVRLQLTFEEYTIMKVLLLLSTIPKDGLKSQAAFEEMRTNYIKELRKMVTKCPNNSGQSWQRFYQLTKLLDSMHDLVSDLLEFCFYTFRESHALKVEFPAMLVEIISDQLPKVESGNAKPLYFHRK

In data set [3] the target is T2, Androgen receptor (Homo sapiens, UniProt P10275).
T2 sequence (P10275 whole entry): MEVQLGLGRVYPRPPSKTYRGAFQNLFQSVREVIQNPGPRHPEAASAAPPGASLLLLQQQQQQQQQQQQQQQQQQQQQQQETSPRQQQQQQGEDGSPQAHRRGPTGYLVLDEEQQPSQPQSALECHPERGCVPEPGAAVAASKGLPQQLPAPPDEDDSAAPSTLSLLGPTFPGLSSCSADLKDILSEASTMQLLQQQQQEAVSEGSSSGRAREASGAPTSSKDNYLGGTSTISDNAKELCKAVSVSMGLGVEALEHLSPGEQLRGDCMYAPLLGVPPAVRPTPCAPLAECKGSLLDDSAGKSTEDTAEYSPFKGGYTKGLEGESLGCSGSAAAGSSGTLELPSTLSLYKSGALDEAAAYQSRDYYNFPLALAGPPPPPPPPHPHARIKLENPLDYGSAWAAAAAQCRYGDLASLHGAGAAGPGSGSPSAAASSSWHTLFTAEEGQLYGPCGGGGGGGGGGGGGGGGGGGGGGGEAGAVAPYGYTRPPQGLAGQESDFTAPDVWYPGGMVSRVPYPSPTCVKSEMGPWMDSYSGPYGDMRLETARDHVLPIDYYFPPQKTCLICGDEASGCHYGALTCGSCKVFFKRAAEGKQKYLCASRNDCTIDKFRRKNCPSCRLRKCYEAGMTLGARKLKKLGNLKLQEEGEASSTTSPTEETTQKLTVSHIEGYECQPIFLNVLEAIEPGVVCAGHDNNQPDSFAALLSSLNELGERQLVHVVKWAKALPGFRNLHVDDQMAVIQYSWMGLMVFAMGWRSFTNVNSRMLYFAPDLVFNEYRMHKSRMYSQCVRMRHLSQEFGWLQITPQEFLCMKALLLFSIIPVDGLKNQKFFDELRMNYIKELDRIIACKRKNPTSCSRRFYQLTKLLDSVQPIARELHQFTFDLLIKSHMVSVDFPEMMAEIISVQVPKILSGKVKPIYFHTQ

Data set [4] has as its target T3, Progesterone receptor (Homo sapiens, UniProt P06401).
T3 sequence (P06401 whole entry): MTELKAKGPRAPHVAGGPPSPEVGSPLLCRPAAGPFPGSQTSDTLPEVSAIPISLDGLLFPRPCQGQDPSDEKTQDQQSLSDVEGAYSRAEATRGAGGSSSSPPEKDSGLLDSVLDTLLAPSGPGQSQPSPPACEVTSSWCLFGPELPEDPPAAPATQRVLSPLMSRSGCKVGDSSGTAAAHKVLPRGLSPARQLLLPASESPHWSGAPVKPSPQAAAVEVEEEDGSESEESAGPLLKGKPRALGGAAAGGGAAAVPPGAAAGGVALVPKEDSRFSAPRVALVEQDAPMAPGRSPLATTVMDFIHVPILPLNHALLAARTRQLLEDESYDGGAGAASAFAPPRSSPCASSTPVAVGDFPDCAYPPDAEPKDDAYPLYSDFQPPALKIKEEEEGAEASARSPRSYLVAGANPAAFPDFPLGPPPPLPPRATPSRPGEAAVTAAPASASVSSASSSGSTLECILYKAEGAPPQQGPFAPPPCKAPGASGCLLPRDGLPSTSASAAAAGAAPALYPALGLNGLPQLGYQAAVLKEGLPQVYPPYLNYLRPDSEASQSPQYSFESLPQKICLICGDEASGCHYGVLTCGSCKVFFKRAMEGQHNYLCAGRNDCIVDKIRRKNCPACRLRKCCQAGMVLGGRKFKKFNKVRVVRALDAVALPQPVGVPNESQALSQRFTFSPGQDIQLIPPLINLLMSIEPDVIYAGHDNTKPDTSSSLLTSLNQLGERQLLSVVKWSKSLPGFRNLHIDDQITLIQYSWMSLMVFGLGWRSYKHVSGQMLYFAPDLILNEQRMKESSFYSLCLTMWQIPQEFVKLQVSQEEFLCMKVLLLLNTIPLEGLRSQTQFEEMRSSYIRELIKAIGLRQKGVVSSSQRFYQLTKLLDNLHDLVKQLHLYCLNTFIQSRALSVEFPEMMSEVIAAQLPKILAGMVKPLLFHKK

pIC50: −log10 of the molar value.

A word on the bioavailability: it is dose-corrected exposure relative to a reference, in per cent. Read a high bioavailability as much systemic uptake. Take `Cc1c(NS(C)(=O)=O)cccc1N(Cc1ccccc1)Cc1ccccc1`: the bioavailability in data set [1] was 5%.

The pIC50 is the negative decadic logarithm of the IC50, by convention in mol/L. The low end stands for a large IC50, the high end for a small IC50. For the compound `Cc1c(NS(C)(=O)=O)cccc1N(Cc1ccccc1)Cc1ccc(Cl)cc1F`, the pIC50 in data set [2] was 5.40; in data set [3], 6.52; in data set [4] it was 6.10.

(Values after ChEMBL document CHEMBL1147558, “Discovery of novel nonsteroidal glucocorticoid receptor modulators” (Bioorg Med Chem Lett, 2004).)
